The results in this text go back to doi:10.1101/2021.04.04.438383 (bioRxiv, 2021).

Protein sequences, listed by entry. Tags and fused reporters are not part of them.
UniProt P83510: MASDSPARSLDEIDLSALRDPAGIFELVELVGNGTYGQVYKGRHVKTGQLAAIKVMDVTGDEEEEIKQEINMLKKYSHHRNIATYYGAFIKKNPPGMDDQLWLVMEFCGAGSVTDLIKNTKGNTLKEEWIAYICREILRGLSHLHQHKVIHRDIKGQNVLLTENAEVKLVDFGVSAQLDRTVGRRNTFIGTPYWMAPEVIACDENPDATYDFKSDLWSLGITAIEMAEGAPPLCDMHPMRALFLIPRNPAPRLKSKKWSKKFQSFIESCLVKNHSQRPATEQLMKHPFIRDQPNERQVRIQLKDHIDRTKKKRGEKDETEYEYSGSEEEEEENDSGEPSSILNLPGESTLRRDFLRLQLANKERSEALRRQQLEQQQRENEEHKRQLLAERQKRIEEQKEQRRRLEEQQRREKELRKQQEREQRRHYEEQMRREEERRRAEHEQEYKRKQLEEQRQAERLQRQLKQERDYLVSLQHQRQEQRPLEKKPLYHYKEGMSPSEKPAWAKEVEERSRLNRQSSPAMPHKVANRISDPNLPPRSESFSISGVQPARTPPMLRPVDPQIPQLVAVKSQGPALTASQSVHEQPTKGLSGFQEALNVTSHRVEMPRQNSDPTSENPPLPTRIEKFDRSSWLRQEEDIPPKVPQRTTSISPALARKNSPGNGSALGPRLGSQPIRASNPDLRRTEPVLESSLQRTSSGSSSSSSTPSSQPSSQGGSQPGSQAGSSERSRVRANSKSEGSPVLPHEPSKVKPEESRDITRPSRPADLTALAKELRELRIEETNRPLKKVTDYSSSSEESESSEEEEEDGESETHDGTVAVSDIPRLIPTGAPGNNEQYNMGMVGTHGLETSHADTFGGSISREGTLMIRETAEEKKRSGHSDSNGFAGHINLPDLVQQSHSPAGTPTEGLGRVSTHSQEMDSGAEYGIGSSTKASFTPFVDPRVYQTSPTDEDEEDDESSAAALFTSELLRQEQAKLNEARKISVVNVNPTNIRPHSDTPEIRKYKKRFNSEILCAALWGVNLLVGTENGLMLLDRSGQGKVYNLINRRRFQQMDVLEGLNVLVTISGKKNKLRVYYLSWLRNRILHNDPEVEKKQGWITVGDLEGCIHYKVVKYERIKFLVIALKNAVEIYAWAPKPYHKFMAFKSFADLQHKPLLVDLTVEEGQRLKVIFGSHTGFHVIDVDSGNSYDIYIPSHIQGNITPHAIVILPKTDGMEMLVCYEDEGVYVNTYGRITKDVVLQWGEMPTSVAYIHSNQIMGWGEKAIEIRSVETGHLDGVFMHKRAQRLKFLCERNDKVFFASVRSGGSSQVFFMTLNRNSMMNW

Common to all, as to assay: co-IP
Assay [1] concerns the target T1, wild-type (WT) Arc-Myc-FLAG (mouse Activity-regulated cytoskeleton-associated protein) (mouse) (UniProt Q9WV31).
T1 sequence: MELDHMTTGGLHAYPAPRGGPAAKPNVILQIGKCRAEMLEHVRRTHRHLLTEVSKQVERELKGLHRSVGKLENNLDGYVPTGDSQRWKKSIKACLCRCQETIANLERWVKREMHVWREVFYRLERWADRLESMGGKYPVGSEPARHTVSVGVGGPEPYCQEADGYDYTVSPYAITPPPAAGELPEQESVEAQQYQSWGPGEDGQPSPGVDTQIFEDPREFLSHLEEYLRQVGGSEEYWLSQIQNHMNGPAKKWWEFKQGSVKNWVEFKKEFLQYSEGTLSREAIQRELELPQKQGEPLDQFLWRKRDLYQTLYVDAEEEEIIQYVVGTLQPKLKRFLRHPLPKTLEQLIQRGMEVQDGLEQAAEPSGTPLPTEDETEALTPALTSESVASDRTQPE

Assay [2] concerns the target TNIK (Traf2 and Nck interacting kinase), endogenous (mouse (endogenous in Neuro2a)) (UniProt P83510).
Assay [3] deals with T1, wild-type (WT) Arc-Myc-FLAG (mouse Activity-regulated cytoskeleton-associated protein) (mouse). This is another data set of the same source.

Where two headings read alike, the source gives them in different places. No constants are given. Whether binding was seen depends on the method and setting. Binding seen in cells or lysates may run through a third protein. Some binding calls cover weakened binding; strength is not graded here. For part of these data: Sequences can lack the tags named with a protein.

Turning to “TNIK (Traf2 and Nck interacting kinase), endogenous (from UniProt P83510 1-1323) (enzyme)”, the binding result in assay [1] is “binds”. As to “wild-type (WT) Arc-Myc-FLAG (mouse Activity-regulated cytoskeleton-associated protein) (from UniProt Q9WV31 1-396)”, in assay [2], the binding entry is “binds”.

B1: drebrin, endogenous (protein, UniProt Q9QXS6 1-706)
chain: MAGVSFSGHRLELLAAYEEVIREESAADWALYTYEDGSDDLKLAASGEGGLQELSGHFENQKVMYGFCSVKDSQAALPKYVLINWVGEDVPDARKCACASHVAKVAEFFQGVDVIVNASSVEDIDAGAIGQRLSNGLARLSSPVLHRLRLREDENAEPVGTTYQKTDAAVEMKRINREQFWEQAKKEEELRKEEERKKALDARLRFEQERMEQERQEQEERERRYREREQQIEEHRRKQQSLEAEEAKRRLKEQSIFGDQRDEEEESQMKKSESEVEEAAAIIAQRPDNPREFFRQQERVASASGGSCDAPAPAPFNHRPGRPYCPFIKASDSGPSSSSSSSSSPPRTPFPYITCHRTPNLSSSLPCSHLDSHRRMAPTPIPTRSPSDSSTASTPIAEQIERALDEVTSSQPPPPPPPPPPTQEAQETTPSLDEELSKEAKVTAAPEVWAGCAAEPPQAQEPPLLQSSPLEDSMCTESPEQAALAAPAEPAASVTSVADVHAADTIETTTATTDTTIANNVTPAAASLIDLWPGNGEEASTLQAEPRVPTPPSGAEASLAEVPLLNEAAQEPLPPVGEGCANLLNFDELPEPPATFCDPEEEVGETLAASQVLTMPSALEEVDQVLEQELEPEPHLLTNGETTQKEGTQASEGYFSQSQEEEFAQSEEPCAKVPPPVFYNKPPEIDITCWDADPVPEEEEGFEGGD
In the case of B1, the binding result in assay [3] is recorded as “binds”.
